Measured values taken from patent publication US8337899B2, “Solid pharmaceutical dispersions with enhanced bioavailability” (Bend Research, Inc., priority 1997, dated 2012).

Assay: syringe/filter in vitro dissolution test in MFD solution
Assay type: physicochemical
Experimental: This example discloses an in vitro dissolution test termed the “syringe/filter” method. In this method the concentration of test compound in solution is determined as a function of time. Test solution is held in a syringe from which samples are expelled through a filter at pre-determined time points. In between expelling samples from the syringe, the syringe is rotated (50 rpm) on a wheel held in an oven at 37° C.
A 20 GA hypodermic needle was attached to the syringe, and 10 mL of a model-fasted duodenal (MFD) solution at 37° C. was drawn into the syringe.
The MFD solution was prepared using the following procedure. […] This mixture was then mixed thoroughly by vortex mixer (Fisher Vortex Genie), and the solvent removed rapidly by roto-evaporator (Rotavapor RE121, Büchi), leaving a dry white surface dispersion coating the flask. The surface dispersion was then reconstituted with 200 mL of the 37° C. phosphate buffered saline.
The needle was then replaced with a 13 mm, 0.45 μm polyvinylidine diflouride syringe filter (Scientific Resources, Titan), and the syringe was vigorously shaken for 30 sec. After 30 sec, 6 drops of the solution was expelled and a subsequent 13 drop sample was delivered to a test tube. After expelling the sample, the syringe plunger was drawn back to pull an air bubble into the syringe to aid in subsequent mixing and the syringe placed back on a rotating wheel in a 37° C. oven. […] The remaining solution in the syringe was mixed by rotating on a wheel at 50 rpm in a 37° C. temperature-controlled box.

## COC(=O)C1=C(C)NC(C)=C(C(=O)OC)C1c1ccccc1[N+](=O)[O-] [Example C12, 1,4-dihydro-2,6-dimethyl-4-(2-nitrophenyl)-3,5-pyridinecarboxylic acid dimethyl ester]
Concentration at 90 minutes, syringe/filter, MFD, 37° C.
  C90: 18 μgA/mL
Concentration at 180 minutes, syringe/filter, MFD, 37° C.
  C180: 19 μgA/mL
Concentration at 1200 minutes, syringe/filter, MFD, 37° C.
  C1200: 19 μgA/mL
syringe/filter method, MFD solution pH 6.5, 37° C., 0.45 μm filtrate
  MSSC (maximum supersaturated concentration): 19 μgA/mL
